{"sequences": {"note": "By UniProt entry, the sequences of proteins in these tests, tags left out.", "UniProt P17844": "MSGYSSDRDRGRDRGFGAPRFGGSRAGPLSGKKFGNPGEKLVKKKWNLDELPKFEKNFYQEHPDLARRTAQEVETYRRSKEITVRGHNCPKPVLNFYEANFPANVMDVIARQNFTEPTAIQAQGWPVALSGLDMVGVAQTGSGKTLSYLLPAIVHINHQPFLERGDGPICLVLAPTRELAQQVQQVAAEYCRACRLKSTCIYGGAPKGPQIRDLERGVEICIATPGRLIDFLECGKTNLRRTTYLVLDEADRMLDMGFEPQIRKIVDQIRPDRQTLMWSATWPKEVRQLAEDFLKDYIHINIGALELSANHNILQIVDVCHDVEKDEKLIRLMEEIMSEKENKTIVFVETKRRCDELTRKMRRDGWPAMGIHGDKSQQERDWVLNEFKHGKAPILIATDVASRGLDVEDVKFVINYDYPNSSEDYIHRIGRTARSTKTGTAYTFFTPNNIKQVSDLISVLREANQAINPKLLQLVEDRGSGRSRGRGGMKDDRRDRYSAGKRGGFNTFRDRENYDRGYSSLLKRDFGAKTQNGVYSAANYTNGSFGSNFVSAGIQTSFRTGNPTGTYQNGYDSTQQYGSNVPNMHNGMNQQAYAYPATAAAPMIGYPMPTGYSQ"}, "source": "paper PMC4793043", "biological_target": "HA-TLX (stable HeLa cell line) (UniProt Q64104)", "assay": "affinity purification with mass spectrometry; nuclear extracts of stable HeLa cells expressing HA or HA-TLX, pre-cleared, incubated with HA beads at 4 °C overnight; gel bands analysed by LC-MS/MS", "note": "No constants are given. Whether binding was seen depends on the method and setting. Binding seen in cells or lysates may run through a third protein. A yes stands for co-enrichment or nearness to the bait. Other partners may have been found."}
{"substance": "RNA helicase p68 (DDX5), endogenous in HeLa (from UniProt P17844 1-614)", "values": [{"measurement": "binding", "result": "binds"}]}
